# Measurements: the supplement of paper PMC11732987, “Enantioselective OTUD7B fragment discovery through chemoproteomics screening and high-throughput optimisation” (Communications Chemistry, 2025)
# By UniProt entry, the sequences of proteins in these tests, tags left out. Where a name states a change or a piece, a line headed by the entry shows the natural chain unless it says otherwise.
# UniProt Q8IYD1: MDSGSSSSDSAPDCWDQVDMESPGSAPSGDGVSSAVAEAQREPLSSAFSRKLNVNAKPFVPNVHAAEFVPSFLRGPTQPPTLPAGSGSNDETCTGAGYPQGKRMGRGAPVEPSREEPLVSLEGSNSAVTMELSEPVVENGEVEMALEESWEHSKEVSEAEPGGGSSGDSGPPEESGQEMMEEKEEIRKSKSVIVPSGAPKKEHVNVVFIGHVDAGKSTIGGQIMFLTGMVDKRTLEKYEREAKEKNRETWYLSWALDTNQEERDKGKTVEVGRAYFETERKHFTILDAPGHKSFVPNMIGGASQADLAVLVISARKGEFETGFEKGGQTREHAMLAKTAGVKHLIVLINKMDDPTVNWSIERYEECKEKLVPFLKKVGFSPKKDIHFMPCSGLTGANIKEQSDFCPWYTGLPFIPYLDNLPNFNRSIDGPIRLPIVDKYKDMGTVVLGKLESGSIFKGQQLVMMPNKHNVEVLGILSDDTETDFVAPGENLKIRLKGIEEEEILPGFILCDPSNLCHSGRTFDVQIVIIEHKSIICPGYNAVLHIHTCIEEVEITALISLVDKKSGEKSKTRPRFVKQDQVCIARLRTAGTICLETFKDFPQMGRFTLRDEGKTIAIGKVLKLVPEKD
# This is one part of the list. The data scatter; read single values as rough.
# Biological target: T1, GSPT2 C93 (UniProt Q8IYD1)
# T1 sequence (whole entry): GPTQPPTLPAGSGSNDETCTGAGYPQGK
# Test: log2 mean competition ratio of IA-DTB cysteine labelling (DMSO/compound) (log2 ratio); higher = stronger cysteine engagement by compound
# Conditions: 50 µM; treatment time: 4 h; cell line lysate: HEK293T
# Protocol: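 IA-DTB competitive cysteine chemoproteomics in HEK293T RIPA lysate. Lysates were treated with compound 29 or 30 at 50 or 200 µM for 4 h, then IA-DTB (500 µM, 1 h), trypsin-digested, NeutrAvidin-enriched and analysed by diaPASEF. Competition ratio = intensity DMSO / intensity compound (n=4 treated, n=64 DMSO); binding: mean log2 CR ≥ 1 and p ≤ 0.05 plus QC filters. Target is the cysteine site.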
row,Structure (SMILES),log2 mean competition ratio
1,O=C(CCl)N[C@H]1CCCc2ccccc21,0.485
2,O=C(CCl)N[C@@H]1CCCc2ccccc21,0.0458

# Same assay, conditions: 200 µM; treatment time: 4 h; cell line lysate: HEK293T
row,Structure (SMILES),log2 mean competition ratio
1,O=C(CCl)N[C@H]1CCCc2ccccc21,-0.154
2,O=C(CCl)N[C@@H]1CCCc2ccccc21,-0.183
